Assay results published in article PMC9997570.
Results are given in words; binding and its absence hold for the method and conditions named. Binding seen in cells or lysates may run through a third protein. A yes stands for co-enrichment or nearness to the bait. Other partners may have been found. For some of these results: A no says only that the protein was not detected with the bait.

Amino acid sequences for entries named in this document (tags omitted). Residues count along the entry.
UniProt Q9NBK5: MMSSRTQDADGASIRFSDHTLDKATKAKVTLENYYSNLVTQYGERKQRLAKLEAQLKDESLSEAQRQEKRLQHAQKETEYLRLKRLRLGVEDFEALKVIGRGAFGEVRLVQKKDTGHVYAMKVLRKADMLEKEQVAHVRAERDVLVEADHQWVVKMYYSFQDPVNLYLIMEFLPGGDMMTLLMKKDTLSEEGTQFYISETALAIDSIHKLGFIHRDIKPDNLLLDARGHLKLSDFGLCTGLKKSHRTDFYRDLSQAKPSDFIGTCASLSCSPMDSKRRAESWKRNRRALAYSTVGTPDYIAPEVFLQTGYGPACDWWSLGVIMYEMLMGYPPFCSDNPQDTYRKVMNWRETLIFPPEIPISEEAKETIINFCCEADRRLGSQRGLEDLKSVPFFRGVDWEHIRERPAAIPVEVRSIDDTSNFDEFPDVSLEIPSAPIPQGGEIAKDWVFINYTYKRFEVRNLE
UniProt Q05825, residues 32-505: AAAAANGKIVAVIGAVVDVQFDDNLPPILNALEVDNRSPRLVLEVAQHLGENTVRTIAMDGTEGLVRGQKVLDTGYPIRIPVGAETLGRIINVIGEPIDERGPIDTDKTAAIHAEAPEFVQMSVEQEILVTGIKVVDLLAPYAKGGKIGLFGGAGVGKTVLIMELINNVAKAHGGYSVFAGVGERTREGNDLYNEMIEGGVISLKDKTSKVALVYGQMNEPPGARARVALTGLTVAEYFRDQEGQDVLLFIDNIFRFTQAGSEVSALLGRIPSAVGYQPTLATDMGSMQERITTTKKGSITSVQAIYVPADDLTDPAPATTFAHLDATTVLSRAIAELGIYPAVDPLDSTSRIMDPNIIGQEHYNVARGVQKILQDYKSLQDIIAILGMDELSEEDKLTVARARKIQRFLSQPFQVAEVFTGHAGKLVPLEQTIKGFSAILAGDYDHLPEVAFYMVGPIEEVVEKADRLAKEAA
UniProt P35381, residues 48-552: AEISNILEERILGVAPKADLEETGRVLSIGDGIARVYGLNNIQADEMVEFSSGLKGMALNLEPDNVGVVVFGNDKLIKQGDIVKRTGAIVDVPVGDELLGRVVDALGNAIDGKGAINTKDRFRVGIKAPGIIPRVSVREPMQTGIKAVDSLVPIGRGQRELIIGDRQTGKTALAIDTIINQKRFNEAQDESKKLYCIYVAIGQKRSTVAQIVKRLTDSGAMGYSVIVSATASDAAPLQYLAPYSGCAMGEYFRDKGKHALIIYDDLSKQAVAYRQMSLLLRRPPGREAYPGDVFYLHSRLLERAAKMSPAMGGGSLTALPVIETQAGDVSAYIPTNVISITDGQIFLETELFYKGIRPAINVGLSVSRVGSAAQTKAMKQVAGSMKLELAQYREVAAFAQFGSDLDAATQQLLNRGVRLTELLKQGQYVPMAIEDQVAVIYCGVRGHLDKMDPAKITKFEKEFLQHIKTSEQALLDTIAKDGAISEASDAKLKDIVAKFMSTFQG
UniProt Q9VT28: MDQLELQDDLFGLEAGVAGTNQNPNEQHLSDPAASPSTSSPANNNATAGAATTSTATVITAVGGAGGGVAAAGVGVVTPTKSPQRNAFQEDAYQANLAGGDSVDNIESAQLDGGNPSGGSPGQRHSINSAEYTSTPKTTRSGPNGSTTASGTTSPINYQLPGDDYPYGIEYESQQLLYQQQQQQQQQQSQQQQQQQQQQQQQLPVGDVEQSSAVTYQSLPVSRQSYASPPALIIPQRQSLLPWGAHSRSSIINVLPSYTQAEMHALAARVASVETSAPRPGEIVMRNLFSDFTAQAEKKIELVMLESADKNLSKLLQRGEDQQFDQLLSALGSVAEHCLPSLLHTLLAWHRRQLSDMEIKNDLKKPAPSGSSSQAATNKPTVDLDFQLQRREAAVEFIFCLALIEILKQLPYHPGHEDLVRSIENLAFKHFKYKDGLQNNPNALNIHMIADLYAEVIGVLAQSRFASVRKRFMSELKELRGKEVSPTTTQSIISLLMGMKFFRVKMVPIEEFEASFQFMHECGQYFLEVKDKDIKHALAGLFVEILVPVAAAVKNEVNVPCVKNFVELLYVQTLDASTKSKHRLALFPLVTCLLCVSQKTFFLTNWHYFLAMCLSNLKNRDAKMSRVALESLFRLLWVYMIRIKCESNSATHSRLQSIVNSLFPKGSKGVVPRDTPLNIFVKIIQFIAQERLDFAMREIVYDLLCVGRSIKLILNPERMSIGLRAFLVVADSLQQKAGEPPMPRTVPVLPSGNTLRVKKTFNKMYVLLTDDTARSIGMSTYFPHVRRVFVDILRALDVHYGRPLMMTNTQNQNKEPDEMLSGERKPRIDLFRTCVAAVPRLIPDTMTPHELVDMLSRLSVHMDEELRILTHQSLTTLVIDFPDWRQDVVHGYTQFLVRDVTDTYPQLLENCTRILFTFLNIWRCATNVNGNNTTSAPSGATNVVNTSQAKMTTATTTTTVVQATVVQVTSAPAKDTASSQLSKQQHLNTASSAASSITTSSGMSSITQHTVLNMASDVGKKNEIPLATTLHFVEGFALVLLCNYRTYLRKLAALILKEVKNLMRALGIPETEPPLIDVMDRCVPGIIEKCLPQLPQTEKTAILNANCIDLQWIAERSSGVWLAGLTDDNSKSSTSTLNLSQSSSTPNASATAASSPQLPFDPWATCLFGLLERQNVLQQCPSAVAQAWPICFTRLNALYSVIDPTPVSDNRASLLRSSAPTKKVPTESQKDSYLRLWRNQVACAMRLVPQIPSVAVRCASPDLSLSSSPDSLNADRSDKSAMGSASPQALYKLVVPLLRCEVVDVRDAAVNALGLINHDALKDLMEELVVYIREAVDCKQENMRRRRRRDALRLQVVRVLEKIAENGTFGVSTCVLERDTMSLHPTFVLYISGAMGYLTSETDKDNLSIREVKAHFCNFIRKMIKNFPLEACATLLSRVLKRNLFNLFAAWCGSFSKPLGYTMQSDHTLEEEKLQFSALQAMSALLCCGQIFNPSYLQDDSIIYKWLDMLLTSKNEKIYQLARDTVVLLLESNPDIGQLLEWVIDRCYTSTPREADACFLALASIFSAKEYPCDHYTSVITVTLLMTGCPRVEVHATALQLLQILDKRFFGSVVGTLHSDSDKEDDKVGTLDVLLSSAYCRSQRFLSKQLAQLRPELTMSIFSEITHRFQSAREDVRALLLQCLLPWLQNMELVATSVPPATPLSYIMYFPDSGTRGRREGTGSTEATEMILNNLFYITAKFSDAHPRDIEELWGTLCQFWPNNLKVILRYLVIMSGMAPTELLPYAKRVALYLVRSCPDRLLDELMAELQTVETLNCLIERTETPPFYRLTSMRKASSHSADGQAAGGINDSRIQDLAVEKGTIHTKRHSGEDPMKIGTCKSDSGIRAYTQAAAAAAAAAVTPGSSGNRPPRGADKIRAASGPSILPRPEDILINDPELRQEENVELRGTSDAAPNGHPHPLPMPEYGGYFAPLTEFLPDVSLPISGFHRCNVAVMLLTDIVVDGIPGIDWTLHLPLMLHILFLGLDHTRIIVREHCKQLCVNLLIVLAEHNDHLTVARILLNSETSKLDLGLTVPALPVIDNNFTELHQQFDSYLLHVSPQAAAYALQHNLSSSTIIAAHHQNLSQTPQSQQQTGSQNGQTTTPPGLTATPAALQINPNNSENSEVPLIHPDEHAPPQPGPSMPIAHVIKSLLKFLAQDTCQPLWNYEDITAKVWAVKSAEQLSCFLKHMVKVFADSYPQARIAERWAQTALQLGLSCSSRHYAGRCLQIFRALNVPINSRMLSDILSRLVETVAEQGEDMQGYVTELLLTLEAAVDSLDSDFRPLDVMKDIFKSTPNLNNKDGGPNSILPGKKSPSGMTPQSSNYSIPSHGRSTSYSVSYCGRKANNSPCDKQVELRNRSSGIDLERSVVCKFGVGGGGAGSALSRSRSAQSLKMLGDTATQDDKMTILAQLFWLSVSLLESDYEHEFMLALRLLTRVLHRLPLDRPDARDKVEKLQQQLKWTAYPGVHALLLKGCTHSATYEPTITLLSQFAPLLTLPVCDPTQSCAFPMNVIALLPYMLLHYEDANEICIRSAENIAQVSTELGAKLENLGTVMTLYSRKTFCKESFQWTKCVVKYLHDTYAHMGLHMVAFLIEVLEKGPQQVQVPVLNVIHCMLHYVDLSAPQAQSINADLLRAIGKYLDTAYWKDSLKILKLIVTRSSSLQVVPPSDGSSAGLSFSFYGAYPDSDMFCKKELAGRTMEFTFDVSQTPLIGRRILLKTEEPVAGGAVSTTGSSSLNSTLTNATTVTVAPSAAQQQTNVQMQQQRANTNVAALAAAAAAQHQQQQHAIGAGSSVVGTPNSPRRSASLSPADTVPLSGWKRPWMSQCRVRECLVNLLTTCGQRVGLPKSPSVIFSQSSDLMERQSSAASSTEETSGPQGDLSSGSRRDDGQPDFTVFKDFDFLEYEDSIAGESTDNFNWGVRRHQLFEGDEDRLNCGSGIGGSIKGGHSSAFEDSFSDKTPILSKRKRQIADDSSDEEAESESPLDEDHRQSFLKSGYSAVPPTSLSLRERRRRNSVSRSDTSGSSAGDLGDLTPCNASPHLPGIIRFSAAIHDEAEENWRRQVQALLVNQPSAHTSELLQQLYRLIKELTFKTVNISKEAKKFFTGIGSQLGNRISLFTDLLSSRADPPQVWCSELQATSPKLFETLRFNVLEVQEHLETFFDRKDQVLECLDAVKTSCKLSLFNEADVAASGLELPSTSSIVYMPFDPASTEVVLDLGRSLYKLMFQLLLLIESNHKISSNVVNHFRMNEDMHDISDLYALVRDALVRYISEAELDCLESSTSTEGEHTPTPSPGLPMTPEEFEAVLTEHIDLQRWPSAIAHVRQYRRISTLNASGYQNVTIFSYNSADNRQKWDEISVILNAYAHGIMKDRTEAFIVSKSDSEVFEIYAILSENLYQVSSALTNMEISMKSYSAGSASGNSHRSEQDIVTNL

target: Tricornered (Trc) kinase, Trc-GFP fusion protein (Drosophila melanogaster) (UniProt Q9NBK5); assay: affinity purification with mass spectrometry; Trc-GFP complexes purified from lysates of 0–16 hr embryos (da-GAL4 x UAS-Trc-GFP), nanoLC-MS/MS; two biological replicates compared with two GFP-alone controls using SAINT

Molecule	binding
Mob2 (protein, UniProt Q8IQG1 1-566) MNWAISNLTGGNRVSRAILVRYSSVPLADATNDGSSTAPQTPTASTPRPSSSHSSLSSTFAATFLHASSRHIPGRAVPRQNANGQNGGKGNASGAGGGAGGGGAGGASGGTGGTGAQAAGQLSLPLDVEETVTCFCRKARRKERDGDQNSTDTKLYLEESVLERKLPEADLKALVDLPAGLDYNEWLASHTLALFEHVNLVYGTISEFCTQSGCADMTGPGNRTYLWFDEKGKKTRVAAPQYIDYVMTFTQKTVSDESIFPTKYANEFPGSFESIARKILRLQFHVIAHLYAAHFREIALLGLHTHLNLTFAHLTALHRRFNLIDEKETDVLRDLEVALRLTDDTGGCQDATSTTSSVHDHSHSGDLQHQSLQQQQQHHNSSSNSTSSAEAFHVNSQSNNGSTSASASVSLIDGDAVAPPICTQPEAGAGCKPAGSSGLLGGILGDLTSGEFGDTTRYCTSAVPQAAAAAGAGVGGTAIGATDAAALNNGAGALHLNFSNNNNNNHNLNHHHHHHHHHGHHGHHHAAQQQQQHSGLIQCNAAGGGGNATGVATGGATAAASSTTTA	binds
Mouse protein 25 (Mo25) (protein, UniProt P91891 1-339) MPLFGKSQKSPVELVKSLKEAINALEAGDRKVEKAQEDVSKNLVSIKNMLYGSSDAEPPADYVVAQLSQELYNSNLLLLLIQNLHRIDFEGKKHVALIFNNVLRRQIGTRSPTVEYICTKPEILFTLMAGYEDAHPEIALNSGTMLRECARYEALAKIMLHSDEFFKFFRYVEVSTFDIASDAFSTFKELLTRHKLLCAEFLDANYDKFFSQHYQRLLNSENYVTRRQSLKLLGELLLDRHNFTVMTRYISEPENLKLMMNMLKEKSRNIQFEAFHVFKVFVANPNKPKPILDILLRNQTKLVDFLTNFHTDRSEDEQFNDEKAYLIKQIKELKPLPEA	binds
Mats (protein, UniProt Q95RA8 1-219) MDFLFGSRSSKTFKPKKNIPEGTHQYDLMKHAAATLGSGNLRNAVALPDGEDLNEWVAVNTVDFFNQINMLYGTITEFCTEETCGIMSAGPKYEYHWADGLTVKKPIKCSAPKYIDYLMTWVQDQLDDETLFPSKIGVPFPKNFHSSAKTILKRLFRVYAHIYHQHFTEVVTLGEEAHLNTSFKHFIFFVQEFNLIERRELAPLQELIDKLTAKDERQI	binds
Mob4 (protein, UniProt Q7K0E3 1-223) MKMADGSTILRRNRPGTKSKDFCRWPDEPLEEMDSTLAVQQYIQQLIKRDPSNVELILTMPEAQDEGVWKYEHLRQFCMELNGLAVRLQKECSPSTCTQMTATDQWIFLCAAHKTPKECPAIDYTRHTLDGAACLLNSNKYFPSRVSIKESSVTKLGSVCRRVYRIFSHAYFHHRRIFDEFEAETYLCHRFTHFVTKYNLMSKENLIVPINVGENAAPGESEA	binds
Phosphofructokinase (Pfk) (enzyme, UniProt P52034 1-788) MNSEINQRFLARGSQKDKGLAVFTSGGDSQGMNAAVRACVRMAIYLGCKVYFIREGYQGMVDGGDCIQEANWASVSSIIHRGGTIIGSARCQDFRERQGRLKAANNLIQRGITNLVVIGGDGSLTGANLFRQEWSSLLDELVKNKTITTEQQEKFNVLHIVGLVGSIDNDFCGTDMTIGTDTALHRIIEAIDAISSTAYSHQRTFIMEVMGRHCGYLALVGGLACEADFIFIPEMPPKVDWPDRLCSQLAQERSAGQRLNIVIVAEGAMDREGHPITAEDVKKVIDERLKHDARITVLGHVQRGGNPSAFDRILACRMGAEATLALMEATKDSVPVVISLDGNQAVRVPLMECVERTQAVAKAMAEKRWADAVKLRGRSFERNLETYKMLTRLKPPKENFDADGKGIEGYRLAVMHIGAPACGMNAAVRSFVRNAIYRGDVVYGINDGVEGLIAGNVRELGWSDVSGWVGQGGAYLGTKRTLPEGKFKEIAARLKEFKIQGLLIIGGFESYHAAGQIADQRDNYPQFCIPIVVIPSTISNNVPGTEFSLGCDTGLNEITEICDRIRQSAQGTKRRVFVIETMGGYCGYLATLAGLAGGADAAYIYEEKFSIKDLQQDVYHMASKMAEGVSRGLILRNEKASENYSTDFIYRLYSEEGKGLFTCRMNILGHMQQGGSPTPFDRNMGTKMAAKCVDWLAAQIKANIDANGVVNCKSPDTATLLGIVSRQYRFSPLVDLIAETNFDQRIPKKQWWLRLRPLLRILAKHDSAYEEEGMYITVEEECDTDAVA	binds
NADH dehydrogenase (ubiquinone) 75 kDa (ND75) (protein, UniProt Q94511 28-731) SAMVAQTPAKAPEKIEVFVDDIPVQVVPGTTVLQAAAQIGVEIPRFCYHERLAVAGNCRMCLVEVEKSPKPVAACAMPVMKGWRIKTNSDLTRKAREGVMEFLLMNHPLDCPICDQGGECDLQDQAMAFGSDRSRFTDINYTGKRAVEDKDIGPLVKTIMTRCIHCTRCVRFASEIAGVDDLGTTGRGNDMQIGTYVEKLFLTELSGNVIDLCPVGALTNKPYSFVARPWEIRKVSSIDVLDAVGSNIVVSTRTNEVLRILPRENEDVNEEWLADKSRFACDGLKRQRLVAPMVRMPNGELQAVEWEGALIAVAKAIKAAGGQIAGISGQLADLEAQVALKDLLNRLGSEVVATEQGFIAGGTDNRANYLLNSTIAGLEEADAVLLVGTNPRYEAPLVNTRLRKAYVHNELQIASIGPKIDLSYDHENLGADAALVKDVCSGAHAFSKVLEGAKKPAIIIGADLLERADGAAIHATVAEYCKKLKKPNWNPFNVLQTNAAQVGALDVGYKAGAQTAVKAQPKVLFLLNADAGKVTREQLPKDCFVVYIGSHGDNGASIADAVLPGAAYTEKQGIYVNTEGRPQQTLPGVSPPGMAREDWKILRALSEVVGKPLPYDNLDELRNRLEDVAPHLTRLGQLEPAGDAGAAGTISKSIGGGAIDIKLKELRDYFMTDAISRASPTMAKCISAVNKQQRENEAKQSVAI	binds
Mob3 (protein, UniProt Q9VL13 1-220) MALNGFLEFFQKGKTFRPKKPFASGTIRYSLHKQAQASLQSGINLRQVVRLPQGENLNDWLAVHVVDFFNRINLIYGTVSEFCNETTCPTMSGGSRYEYLWADGDLYKKPTALSAQKYIEHLMDWIETQINNEAVFPVSTDVPFPKNFIAISRKILTRLFRVFVHVYIHHFDRIVSIGAEAHVNACYKHFYYFVQEFDMISAKELEPLQEMTSRICKDKD	no binding

target: Tricornered (Trc) kinase, Trc-GFP fusion protein (Drosophila melanogaster) (UniProt Q9NBK5); assay: as above; remark: another data set of the same source

Molecule	binding
ATP synthase-beta (ATPsyn-beta, the ATP synthase-beta subunit) (from UniProt Q05825 32-505)	binds
Bellwether (Blw, the ATP synthase alpha subunit) (from UniProt P35381 48-552)	binds
Furry (Fry) (from UniProt Q9VT28 1-3479)	binds
